{"sequences": {"note": "By UniProt entry, the sequences of proteins in these tests, tags left out.", "UniProt P63015": "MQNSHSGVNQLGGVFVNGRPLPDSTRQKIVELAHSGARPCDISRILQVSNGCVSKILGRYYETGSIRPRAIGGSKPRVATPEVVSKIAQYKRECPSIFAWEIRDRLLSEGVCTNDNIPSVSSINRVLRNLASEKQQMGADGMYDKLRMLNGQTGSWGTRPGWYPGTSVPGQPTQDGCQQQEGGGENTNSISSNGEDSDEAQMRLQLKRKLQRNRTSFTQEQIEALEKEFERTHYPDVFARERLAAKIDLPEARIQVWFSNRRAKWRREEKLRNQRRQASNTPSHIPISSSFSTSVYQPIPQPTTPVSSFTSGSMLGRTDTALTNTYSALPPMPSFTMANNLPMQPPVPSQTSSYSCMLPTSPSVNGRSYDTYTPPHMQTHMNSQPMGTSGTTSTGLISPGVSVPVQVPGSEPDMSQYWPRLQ"}, "source": "paper PMC3335779", "target": "paired box 6 (Pax6) (mouse (endogenous in murine eyes)) (UniProt P63015)", "assay": "co-IP; mouse eye lysate in IP buffer (0.1% SDS, 0.5% sodium deoxycholate, protease inhibitors); antibody (anti-Pax6, anti-TGF-β or anti-SPARC) on protein-G resin, 60 min at 4 °C with lysate; immunoblot with ECL detection; negative control: protein-G slurry without primary antibody", "note": "These are yes or no findings as the source states them, for the method shown. Binding seen in cells or lysates may run through a third protein. Some entries that bind do so weakly or less than the wild type."}
{"binder": "secreted protein acidic and rich in cysteine (SPARC) (protein, UniProt P07214 18-302) APQQTEVAEEIVEEETVVEETGVPVGANPVQVEMGEFEDGAEETVEEVVADNPCQNHHCKHGKVCELDESNTPMCVCQDPTSCPAPIGEFEKVCSNDNKTFDSSCHFFATKCTLEGTKKGHKLHLDYIGPCKYIAPCLDSELTEFPLRMRDWLKNVLVTLYERDEGNNLLTEKQKLRVKKIHENEKRLEAGDHPVELLARDFEKNYNMYIFPVHWQFGQLDQHPIDGYLSHTELAPLRAPLIPMEHCTTRFFETCDLDNDKYIALEEWAGCFGIKEQDINKDLVI", "values": [{"measurement": "binding", "result": "binds"}]}
